For part of these data: One purity is given for all peptides; the source may state it once. No end group written: not given here.

The nature of series [1]: general procedure: Fmoc solid-phase peptide synthesis; Fmoc-protected Rink Amide NovaGel resin (0.7 mmol/g); Fmoc-protected Wang NovaGel resin (0.1 mmol/g); HBTU/HOBt/DIPEA. As to conditions: whole synthesis.
The nature of series [2]: general procedure: Fmoc solid-phase peptide synthesis; Wang resin; HBTU/HOBt/DIPEA. As to conditions: whole synthesis; for isolated yield: on resin loading.
Series [3] in a line: general procedure: Fmoc solid-phase peptide synthesis; Rink amide resin; HBTU/HOBt/DIPEA. Conditions: whole synthesis, scale 165 μmol.

“Gln-Arg-Pro-Arg-Leu-Ser-His-Lys-Gly-Pro-Met-Pro-Phe”: the “final HPLC purity” value in series [1] (220 nm) is greater than 95%. Besides, in series [2] (scale 16 μmol), the isolated yield amounted to 47.7% and the isolated mass was 18.9 mg.

“CYIQNCPKG (cysteine pairing not given here)”: the “final HPLC purity” value in series [1] (220.8 nm) is greater than 95%. Besides, the isolated yield in series [3] (on resin loading) is 8%. For the same substance, the isolated mass in series [3] was found to be 21.1 mg.

Asp-Arg-Val-Tyr-Ile-His-Pro-Phe: the “final HPLC purity” value in series [1] (220 nm) is on record as greater than 95%. In series [2] (scale 50 μmol), this substance had an isolated yield of 47% and an isolated mass of 41.4 mg.

The values are drawn from US20230173076A1 (UNIVERSITÉ DE STRASBOURG, priority 2016, published 2023).
